Data source: PubChem BioAssay AID493246 (Drosophila RNAi Screening Center, 2011)
The screen tested about 21,000 reagents; this is an unselected part of those with a known target gene and a result. Over the whole deposit, 429 (2%) are marked active. 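Values are raw and not normalised between plates; calls rest on per-plate z-scores that were not deposited.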 Unmarked entries are inactive. The numbers tell different reagents against one gene apart. Names joined by + are all predicted targets of the reagent. Reagent sequences are not shown. The record does not give: the amount of reagent, the time to read-out.

- Aim: 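Identify essential fly genes by loss of cell viability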 (primary screen)
- System: Drosophila Kc and S2R+ cells
- Reagent: long dsRNA against Drosophila genes
- Detection: 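Cell number per well after knock-down, printed as raw plate values; calls were based on per-plate z-scores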
- Reading the numbers: Kc cell number and S2R+ cell number: higher = more cells remaining
- Call rule: 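Active when the per-plate z-score of cell number is 3 or more in the direction of fewer cells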

gene knocked down | reagent no. | Kc cell number, rep 1 | Kc cell number, rep 2 | S2R+ cell number, rep 1 | S2R+ cell number, rep 2
PGAP3 | 1 | 1.28e6 | 1.34e6 | 1.14e6 | 1.23e6
CG14877 | 1 | 1.36e6 | 1.37e6 | 1.06e6 | 1.21e6
CG1231 | 1 | 1.60e6 | 9.88e5 | 1.06e6 | 1.16e6
aurA | 1 | 2.08e6 | 2.09e6 | 1.22e6 | 1.26e6
CG18577 | 1 | 1.64e6 | 1.64e6 | 1.31e6 | 1.43e6
CG34249 (retired record) | 1 | 1.37e6 | 1.48e6 | 1.03e6 | 1.24e6
l(3)87Df | 1 | 1.52e6 | 1.53e6 | 1.01e6 | 1.14e6
Cdk1 | 1 | 1.23e6 | 1.42e6 | 8.47e5 | 9.05e5
CG13599 | 1 | 1.55e6 | 1.74e6 | 9.82e5 | 1.12e6
CG6656 | 1 | 1.55e6 | 1.53e6 | 1.18e6 | 1.24e6
FoxK | 1 | 1.22e6 | 1.27e6 | 1.10e6 | 9.53e5
CG13685 | 1 | 1.61e6 | 1.63e6 | 1.15e6 | 1.19e6
CG13272 | 1 | 1.49e6 | 1.54e6 | 1.22e6 | 1.29e6
CG18789 | 1 | 1.73e6 | 1.88e6 | 1.22e6 | 1.31e6
CG32812 | 1 | 1.72e6 | 1.78e6 | 1.19e6 | 1.26e6
l(2)k09913 | 1 | 1.31e6 | 1.38e6 | 1.01e6 | 1.09e6
egh | 1 | 1.52e6 | 1.56e6 | 1.06e6 | 1.18e6
Tsr1 | 1 | 1.30e6 | 1.43e6 | 1.23e6 | 1.33e6
CG14627 | 1 | 1.47e6 | 1.49e6 | 1.08e6 | 1.18e6
CG4325 | 1 | 9.00e5 (active) | 1.07e6 | 6.46e5 | 7.42e5
CG12643 | 1 | 1.64e6 | 1.51e6 | 1.15e6 | 1.29e6
tipE | 1 | 1.31e6 | 1.40e6 | 1.33e6 | 1.26e6
CG42553 | 1 | 1.33e6 | 1.39e6 | 1.13e6 | 1.33e6
CG16736 | 1 | 1.64e6 | 1.77e6 | 1.32e6 | 1.57e6
Ir48b | 1 | 1.92e6 | 1.84e6 | 1.21e6 | 1.43e6
Scgdelta | 1 | 1.62e6 | 1.62e6 | 1.03e6 | 1.17e6
CG11291 | 1 | 1.61e6 | 1.64e6 | 1.27e6 | 4.65e5
grn | 1 | 5.79e5 (active) | 5.30e5 | 4.45e5 | 6.02e5
grn | 2 | 1.54e6 | 1.80e6 | 1.34e6 | 1.41e6
garz | 1 | 1.56e6 | 1.48e6 | 1.12e6 | 1.21e6
slif | 1 | 1.66e6 | 1.65e6 | 1.24e6 | 1.33e6
AgmNAT | 1 | 1.43e6 | 1.49e6 | 1.04e6 | 1.12e6
Gapdh1 | 1 | 1.35e6 | 1.57e6 | 1.18e6 | 1.27e6
primo-2 + primo-1 | 1 | 1.24e6 | 1.34e6 | 1.22e6 | 1.34e6
wun2 | 1 | 1.78e6 | 1.88e6 | 1.44e6 | 1.58e6
CG12432 (retired record) | 1 | 1.52e6 | 1.49e6 | 1.07e6 | 1.16e6
CG9386 | 1 | 1.65e6 | 1.11e6 | 1.24e6 | 1.35e6
CG2656 | 1 | 1.61e6 | 1.65e6 | 1.36e6 | 1.47e6
CG13026 | 1 | 1.52e6 | 1.75e6 | 1.43e6 | 1.54e6
CG42827 + CG42828 | 1 | 1.23e6 | 1.69e6 | 1.04e6 | 1.16e6
Rpn11 | 1 | 8.83e5 (active) | 8.97e5 | 6.95e5 | 7.56e5
CG3618 | 1 | 1.57e6 | 1.63e6 | 1.27e6 | 1.35e6
RpL23A | 1 | 1.09e6 | 1.14e6 | 7.19e5 | 7.86e5
CG17738 | 1 | 1.51e6 | 1.55e6 | 1.28e6 | 1.37e6
mthl5 | 1 | 1.69e6 | 1.69e6 | 1.34e6 | 1.45e6
CG13667 | 1 | 1.32e6 | 1.46e6 | 1.14e6 | 1.08e6
spz5 | 1 | 1.34e6 | 1.40e6 | 1.19e6 | 1.12e6
CG15255 | 1 | 1.50e6 | 1.55e6 | 1.12e6 | 1.24e6
Nmdar2 | 1 | 1.51e6 | 1.56e6 | 1.03e6 | 1.13e6
Nmdar2 | 2 | 1.51e6 | 1.45e6 | 1.01e6 | 1.10e6
Nmdar2 | 3 | 1.47e6 | 1.50e6 | 1.00e6 | 1.12e6
hop | 1 | 1.49e6 | 1.44e6 | 9.98e5 | 1.12e6
CG32213 + CG12519 + 825-Oak + 1 more | 1 | 1.41e6 | 1.39e6 | 1.05e6 | 1.11e6
Vajk1 | 1 | 1.89e6 | 1.89e6 | 1.38e6 | 1.64e6
Arp53D | 1 | 1.61e6 | 1.63e6 | 1.29e6 | 1.46e6
LManII | 1 | 1.28e6 | 1.37e6 | 1.21e6 | 1.35e6
Idgf5 | 1 | 1.35e6 | 1.44e6 | 1.20e6 | 1.26e6
CG15357 | 1 | 1.47e6 | 1.53e6 | 1.07e6 | 1.21e6
CG18327 | 1 | 1.73e6 | 1.70e6 | 1.33e6 | 1.40e6

No new results follow: entries from further up.
gene knocked down | reagent no. | Kc cell number, rep 1 | Kc cell number, rep 2 | S2R+ cell number, rep 1 | S2R+ cell number, rep 2
Nmdar2 | 2 | 1.51e6 | 1.45e6 | 1.01e6 | 1.10e6
Nmdar2 | 3 | 1.47e6 | 1.50e6 | 1.00e6 | 1.12e6
hop | 1 | 1.49e6 | 1.44e6 | 9.98e5 | 1.12e6
CG32213 + CG12519 + 825-Oak + 1 more | 1 | 1.41e6 | 1.39e6 | 1.05e6 | 1.11e6
Vajk1 | 1 | 1.89e6 | 1.89e6 | 1.38e6 | 1.64e6
Arp53D | 1 | 1.61e6 | 1.63e6 | 1.29e6 | 1.46e6
LManII | 1 | 1.28e6 | 1.37e6 | 1.21e6 | 1.35e6
Idgf5 | 1 | 1.35e6 | 1.44e6 | 1.20e6 | 1.26e6
